Reference: patent US10738070B2, “Mannose-derived antagonists of FimH useful for treating disease” (Fimbrion Therapeutics, Inc., priority 2016, dated 2020)
At least one structure is not confirmed: it was looked up by name or label, or the drawing left a doubt.

Sequences of proteins named here, by UniProt entry; tags and fusion partners are left off.
UniProt Q1R2J4, entry or part of it: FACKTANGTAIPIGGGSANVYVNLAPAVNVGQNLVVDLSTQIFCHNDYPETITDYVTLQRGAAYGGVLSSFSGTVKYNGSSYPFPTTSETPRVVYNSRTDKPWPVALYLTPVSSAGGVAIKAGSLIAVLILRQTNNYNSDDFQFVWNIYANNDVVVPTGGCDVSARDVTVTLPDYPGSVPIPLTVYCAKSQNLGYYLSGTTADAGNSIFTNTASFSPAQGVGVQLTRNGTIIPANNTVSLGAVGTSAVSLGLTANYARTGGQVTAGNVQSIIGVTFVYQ

Target: T1, FimH (Escherichia coli, UniProt Q1R2J4)
T1 construct: endogenous in cells; host or cells: E. coli UTI89 bacteria
Assay: Hemagglutination inhibition (HAI) assay with UTI89 bacteria and guinea pig red blood cells
Type: cell-based
Settings: concentration reducing bacterial agglutination of guinea pig red blood cells by greater than 90%; UTI89 bacteria
Method: “HAI or EC>90” is that concentration of the FimH inhibitor/antagonist which reduces the bacterial agglutination of guinea pig red blood cells by greater than 90%.
HAI Assay The hemagglutination inhibition (HAI) assay was performed with UTI89 bacteria and guinea pig red blood cells, as previously described (S. J. Hultgren, W. R. Schwan, A. J. Schaeffer, J. L. Duncan Infect. Immun. 1986, 54, 613-620). Compounds not listed were not tested.

Row | Compound | HAI titer EC>90
1 | Cc1cc(-c2cccc3c2CCN(C)C3)ccc1O[C@H]1O[C@H](CO)[C@@H](O)[C@H](O)[C@@H]1O [Example 20, 1,2,3,4-Tetrahydro-5-[4′-(α-D-mannopyranosyloxy)-3′-methylphenyl]-N-methylisoquinoline] | 2 µM
2 | Cc1cc(-c2cccc3c2CCNC3)ccc1O[C@H]1O[C@H](CO)[C@@H](O)[C@H](O)[C@@H]1O [Example 19, 1,2,3,4-Tetrahydro-5-[4′-(α-D-mannopyranosyloxy)-3′-methylphenyl]-isoquinoline] | 2 µM
